Measured data: PubChem BioAssay AID652272 (Drosophila RNAi Screening Center, 2013)

Test: 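Genome-wide knock-down search for components of Hedgehog signalling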 (primary screen)
System: Drosophila clone 8 (Cl8) cells
Knock-down reagent: long dsRNA against Drosophila genes
Measured: 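Plate reader light from a firefly reporter under a ptc promoter fragment that responds to Hedgehog, with Renilla light as transfection reference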
Reading the numbers: firefly Hh reporter signal: higher = more ptc reporter light; Renilla reference signal: higher = more Renilla control light
Rule for the call: 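Called a hit if the two-replicate mean z-score lies below -2 or above +3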
Calls: active = hit: reporter lowered or raised; inactive = not a hit
In all, the deposit lists about 21,000 reagents; shown is an unselected part of those that have a named target and a result. Of all reagents, 503 (2.4%) got an active call. 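Raw plate light values, not normalised; calls rest on replicate z-scores that were not deposited; hits include reporter decreases as well as increases.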 Unmarked entries are inactive. Reagents against one gene are numbered here. No sequences are given here. The record does not give: the amount of reagent, the time to read-out.

COX6B showed firefly Hh reporter signal, replicate 1 = 1.43e5; firefly Hh reporter signal, replicate 2 = 1.26e5; Renilla reference signal, replicate 1 = 3352; Renilla reference signal, replicate 2 = 3040. Silencing of Nemp came out at: firefly Hh reporter signal, replicate 1 = 1.01e5; firefly Hh reporter signal, replicate 2 = 95824; Renilla reference signal, replicate 1 = 1714; Renilla reference signal, replicate 2 = 2384. After knock-down of CG10359, the screen gave firefly Hh reporter signal, replicate 1 = 62576; firefly Hh reporter signal, replicate 2 = 61220; Renilla reference signal, replicate 1 = 2984; Renilla reference signal, replicate 2 = 2102. After knock-down of glob3, the screen gave firefly Hh reporter signal, replicate 1 = 1.32e5; firefly Hh reporter signal, replicate 2 = 1.69e5; Renilla reference signal, replicate 1 = 5169; Renilla reference signal, replicate 2 = 5345. For dachs #1 the deposit lists firefly Hh reporter signal, replicate 1 = 7.04e5; firefly Hh reporter signal, replicate 2 = 3.39e5; Renilla reference signal, replicate 1 = 38986; Renilla reference signal, replicate 2 = 14898. dachs #2 scored firefly Hh reporter signal, replicate 1 = 72457; firefly Hh reporter signal, replicate 2 = 62731; Renilla reference signal, replicate 1 = 4016; Renilla reference signal, replicate 2 = 861.

dachs #3 scored firefly Hh reporter signal, replicate 1 = 1.02e5; firefly Hh reporter signal, replicate 2 = 73690; Renilla reference signal, replicate 1 = 2583; Renilla reference signal, replicate 2 = 6243. Knock-down of Ccm3 came out at: firefly Hh reporter signal, replicate 1 = 1.16e5; firefly Hh reporter signal, replicate 2 = 1.31e5; Renilla reference signal, replicate 1 = 3767; Renilla reference signal, replicate 2 = 3401. After knock-down of l(3)04053 the results were firefly Hh reporter signal, replicate 1 = 2.10e5; firefly Hh reporter signal, replicate 2 = 4.41e5; firefly Hh reporter signal, replicate 3 = 1.42e5; Renilla reference signal, replicate 1 = 7424; Renilla reference signal, replicate 2 = 25940. CG10834 scored firefly Hh reporter signal, replicate 1 = 77772; firefly Hh reporter signal, replicate 2 = 54364; Renilla reference signal, replicate 1 = 2051; Renilla reference signal, replicate 2 = 4024. For CG14069, the values are firefly Hh reporter signal, replicate 1 = 1.09e5; firefly Hh reporter signal, replicate 2 = 67424; Renilla reference signal, replicate 1 = 2964; Renilla reference signal, replicate 2 = 5186. After knock-down of Mtk the results were firefly Hh reporter signal, replicate 1 = 1.35e5; firefly Hh reporter signal, replicate 2 = 83991; Renilla reference signal, replicate 1 = 3161; Renilla reference signal, replicate 2 = 5426.

Knock-down of prt resulted in: firefly Hh reporter signal, replicate 1 = 4.31e5; firefly Hh reporter signal, replicate 2 = 81075; Renilla reference signal, replicate 1 = 22939; Renilla reference signal, replicate 2 = 2775. GILT3 showed firefly Hh reporter signal, replicate 1 = 4.23e5; firefly Hh reporter signal, replicate 2 = 93349; Renilla reference signal, replicate 1 = 22022; Renilla reference signal, replicate 2 = 2550. For Gem2, the values are firefly Hh reporter signal, replicate 1 = 77217; firefly Hh reporter signal, replicate 2 = 59936; Renilla reference signal, replicate 1 = 3184; Renilla reference signal, replicate 2 = 2305. With knock-down of CG34357 #1, the record shows firefly Hh reporter signal, replicate 1 = 1.21e5; firefly Hh reporter signal, replicate 2 = 1.17e5; Renilla reference signal, replicate 1 = 4164; Renilla reference signal, replicate 2 = 3010. With knock-down of CG34357 #2, the screen gave firefly Hh reporter signal, replicate 1 = 65847; firefly Hh reporter signal, replicate 2 = 91394; Renilla reference signal, replicate 1 = 2423; Renilla reference signal, replicate 2 = 2329. CG34357 #3 gave firefly Hh reporter signal, replicate 1 = 1.23e5; firefly Hh reporter signal, replicate 2 = 1.60e5; Renilla reference signal, replicate 1 = 4272; Renilla reference signal, replicate 2 = 4264.

ZnT33D scored firefly Hh reporter signal, replicate 1 = 1.19e5; firefly Hh reporter signal, replicate 2 = 45218; Renilla reference signal, replicate 1 = 3092; Renilla reference signal, replicate 2 = 3777. For CG8736 the deposit lists firefly Hh reporter signal, replicate 1 = 1.47e5; firefly Hh reporter signal, replicate 2 = 65965; Renilla reference signal, replicate 1 = 3624; Renilla reference signal, replicate 2 = 6400. Ir41a #1 gave firefly Hh reporter signal, replicate 1 = 1.43e5; firefly Hh reporter signal, replicate 2 = 2.04e5; Renilla reference signal, replicate 1 = 3108; Renilla reference signal, replicate 2 = 7978. With knock-down of Ir41a #2, the screen gave firefly Hh reporter signal, replicate 1 = 97088; firefly Hh reporter signal, replicate 2 = 65403; Renilla reference signal, replicate 1 = 1893; Renilla reference signal, replicate 2 = 6800.

Ordered by “Renilla reference signal, replicate 2” (high to low): 2 of the entries above.
Nemp → firefly Hh reporter signal, replicate 1 = 1.01e5; firefly Hh reporter signal, replicate 2 = 95824; Renilla reference signal, replicate 1 = 1714; Renilla reference signal, replicate 2 = 2384
CG10359 → firefly Hh reporter signal, replicate 1 = 62576; firefly Hh reporter signal, replicate 2 = 61220; Renilla reference signal, replicate 1 = 2984; Renilla reference signal, replicate 2 = 2102
